In patent US20120220540A1, “SYNBODIES TO AKT1” (ARIZONA BOARD OF REGENTS FOR AND ON BEHALF OF ARIZONA STATE …, priority 2009, published 2012):
Results are given in words; binding and its absence hold for the method and conditions named. Some binding calls cover weakened binding; strength is not graded here.

Amino acid sequences for entries named in this document (tags omitted). A change or cut given only in a name is not applied to a line headed by its entry.
UniProt P31749: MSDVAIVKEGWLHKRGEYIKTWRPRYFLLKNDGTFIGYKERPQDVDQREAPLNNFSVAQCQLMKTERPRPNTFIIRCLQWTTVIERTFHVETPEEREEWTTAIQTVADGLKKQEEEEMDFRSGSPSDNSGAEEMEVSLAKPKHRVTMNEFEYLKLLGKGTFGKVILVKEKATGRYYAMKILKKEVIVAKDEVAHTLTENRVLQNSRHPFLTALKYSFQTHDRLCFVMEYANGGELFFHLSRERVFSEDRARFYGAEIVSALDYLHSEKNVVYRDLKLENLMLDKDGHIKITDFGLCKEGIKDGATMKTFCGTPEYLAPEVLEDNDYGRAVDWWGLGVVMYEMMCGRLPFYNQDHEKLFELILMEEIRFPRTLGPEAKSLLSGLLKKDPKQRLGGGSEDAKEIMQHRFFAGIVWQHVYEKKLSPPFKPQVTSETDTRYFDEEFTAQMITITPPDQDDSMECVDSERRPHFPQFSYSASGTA

Experiments:
AKT1 [1] = biological target: T1, AKT1 (human, UniProt P31749 1-480); test: immunofluorescence microscopy of fixed, permeabilised TE671 cells, 50 nM labelled synbody
T1 construct: also called human AKT1; AKT1_HUMAN

AKT1 [2] = biological target: T1, AKT1; test: immunofluorescence microscopy of fixed, permeabilised TE671 cells stained with 50 nM labeled synbody

B1: 26-23-(PEG2) Alexafluor 488 (designed binder)
chain 1: AHKVVPQRQIRHAYNRYGSG
chain 2: FRGWAHIFFGPHVIYRGGSG
modifications: PEG2 and Alexafluor 488 label; point of attachment not stated
- binding (AKT1 [1]): binds
- binding (AKT1 [2]): binds
